Several values for one entry are separate records, joined by “and”; a condition that tells them apart may be missing. Equal values may be shown once. The campaign covered roughly 390,000 compounds. About 4,000 (1%) were called active. This list was built around the results that the source calls inconclusive (neither active nor inactive); the mix of calls is not that of the screen. Calls follow the shape of the dose curve; as a rule, active = well fitted inhibition curve with a large enough effect; inconclusive = small, poorly fitted or top-dose-only effect, or another doubt; inactive = no such curve, though single readings can be large or run the other way. Where the call is inconclusive, the potency comes from a doubtful curve fit.
These compounds were tested against DNA polymerase iota (Homo sapiens) (UniProt Q9UNA4) (assay: qHTS for Inhibitors of Polymerase Iota). Conditions: Pol iota fluorescent replication assay, 10 min; series mostly up to 115 µM; activity, negative = inhibition: at the top concentration.
How it was run: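 Fluorescent replication assay read twice, at 0 min and 10 min after adding 50 nM (final) substrate. Enzyme (10 nM) and compounds were first incubated 15 min at room temperature; enzyme-free buffer wells were negative controls.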
Potency is read from the fitted curve at half-maximal effect.

Chains of the proteins cited; added tags and fusions are not shown. Lines headed by an entry give the natural chain unless they say otherwise; changes in a name come on top.
UniProt Q9UNA4: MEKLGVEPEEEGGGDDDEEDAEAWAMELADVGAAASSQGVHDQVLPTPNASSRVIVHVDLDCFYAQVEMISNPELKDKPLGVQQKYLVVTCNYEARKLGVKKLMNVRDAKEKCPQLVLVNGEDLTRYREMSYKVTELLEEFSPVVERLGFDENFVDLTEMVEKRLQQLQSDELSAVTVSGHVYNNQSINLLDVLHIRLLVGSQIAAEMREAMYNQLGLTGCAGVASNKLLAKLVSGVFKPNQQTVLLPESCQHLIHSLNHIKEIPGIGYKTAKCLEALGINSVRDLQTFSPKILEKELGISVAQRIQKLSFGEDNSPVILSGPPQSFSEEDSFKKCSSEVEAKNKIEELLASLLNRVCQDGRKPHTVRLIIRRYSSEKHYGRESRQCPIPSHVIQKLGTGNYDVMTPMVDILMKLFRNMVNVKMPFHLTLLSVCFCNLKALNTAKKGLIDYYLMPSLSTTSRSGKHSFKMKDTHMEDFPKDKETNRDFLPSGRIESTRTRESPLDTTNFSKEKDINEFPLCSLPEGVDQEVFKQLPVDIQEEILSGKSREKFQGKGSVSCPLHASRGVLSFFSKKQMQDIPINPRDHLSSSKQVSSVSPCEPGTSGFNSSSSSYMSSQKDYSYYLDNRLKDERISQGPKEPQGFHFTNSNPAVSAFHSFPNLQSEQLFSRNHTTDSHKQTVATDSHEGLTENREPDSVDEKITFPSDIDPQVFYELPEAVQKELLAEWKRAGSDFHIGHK

Potency, inconclusive:
C=CCn1nnnc1SCC(=O)Nc1cccc(C(F)(F)F)c1 100 µM [inhibitor, partial curve, poor fit], CCN(C(=O)Cn1cnc2ccccc2c1=O)C1CCS(=O)(=O)C1 (centres undefined) 50.1 µM [inhibitor, partial curve, poor fit], O=C(CSc1nc2ccccc2c(=O)n1Cc1ccco1)c1ccccc1 15.8 µM [inhibitor, partial curve], Cc1ccc2nc(N3C(=O)C(O)=C(C(=O)c4ccco4)C3c3cccs3)sc2c1 (centres undefined) 15.8 µM [inhibitor, full curve, poor fit], Cc1ccc(N(CCCCN2C(=O)c3ccccc3C2=O)C(=O)c2cccc([N+](=O)[O-])c2)cc1 7.08 µM [inhibitor, partial curve, poor fit], N#Cc1ccc(NC(=O)COc2ccc(-n3cnnn3)cc2)cc1 50.1 µM [inhibitor, partial curve, poor fit], CCOC(=O)c1ccc(-n2c(=O)[nH]c3ccccc3c2=O)cc1 112 µM [inhibitor, single point], Cc1ccc(S(=O)(=O)N2CCOCC2)cc1C(=O)OCC(=O)Nc1ccc2[nH]c(=O)[nH]c2c1 25.1 µM [inhibitor, full curve, poor fit], CC(=O)Nc1cc([N+](=O)[O-])cc(NC(C)=O)c1NC(C)=O 89.1 µM [inhibitor, single point], O=C(Nc1ccc(-c2cn3ccccc3n2)cc1)c1cccs1 22.4 µM [inhibitor, full curve], CC1CC/C(=C\c2ccc3c(c2)OCO3)C(=O)/C1=C/c1ccc2c(c1)OCO2 (centres undefined) 28.2 µM [inhibitor, partial curve, poor fit], Cc1ccc(NC(=O)CN2C(=O)NC3(CCCc4ccccc43)C2=O)c(C)c1 (centres undefined) 56.2 µM [inhibitor, partial curve, poor fit], COC(=O)[C@]1(CC(C)C)N[C@H](c2ccc(-c3cccc(Cl)c3)cc2)[C@@H]2C(=O)N(C)C(=O)[C@@H]21 20 µM [inhibitor, partial curve, poor fit], CN(C)/C=C1\C=C(c2ccccc2)OC1=O 39.8 µM [inhibitor, single point], O=C(CCc1ccccc1)NNC(=S)NC(=O)c1ccccc1 100 µM [inhibitor, partial curve, poor fit], CCc1ccc(C(=O)c2cn(CC(=O)Nc3ccc4c(c3)OCO4)c3ccc(OC)cc3c2=O)cc1 25.1 µM [inhibitor, partial curve, poor fit], C#Cc1ccc([C@@H]2C=C(C(=O)O)O[C@H](OCc3ccc(CO)cc3)C2)cc1 56.2 µM [inhibitor, partial curve, poor fit], CC1CCCCN1C(=O)c1cc2nc(-c3ccccc3)cc(-c3ccccc3)n2n1 (centres undefined) 39.8 µM [inhibitor, partial curve, poor fit], CCN(CC)S(=O)(=O)c1cccc(C(=O)OC2CCOC2=O)c1 (centres undefined) 39.8 µM [inhibitor, partial curve], Cc1c(N/C(=N/S(=O)(=O)c2ccccc2)c2ccc(Cl)cc2)c(=O)n(-c2ccccc2)n1C 89.1 µM [inhibitor, partial curve, poor fit], CC(C)(C=O)C1=CC(=O)c2ccccc2C1=O 28.2 µM [inhibitor, single point], O=C1OC(/C=C/c2ccc(Cl)cc2Cl)=NC/1=C\c1cccs1 6.31 µM [inhibitor, full curve, poor fit], COCc1cc(C)nc(SCC(=O)Nc2ccc3c(c2)OCO3)c1C#N 7.94 µM [inhibitor, single point], COc1ccc(NC(=O)CN2C(=O)/C(=C3\SC(=S)N(CCC(=O)O)C3=O)c3ccccc32)cc1 3.98 µM [inhibitor, partial curve, poor fit], O=C(/C=C/c1ccccc1)NNC1=NS(=O)(=O)c2ccccc21 44.7 µM [inhibitor, partial curve, poor fit], COc1cc(NC(=O)c2cccc3c2C(=O)N(C2CCCCC2)C3)cc(OC)c1OC 89.1 µM [inhibitor, single point] and 50.1 µM [inhibitor, partial curve, poor fit], c1coc(C2=NC(c3ccco3)C(c3ccco3)N2)c1 (centres undefined) 20 µM [inhibitor, partial curve, poor fit], O=C(Nc1ccc(Br)c2cccnc12)c1ccc(Cn2cc([N+](=O)[O-])cn2)o1 17.8 µM [inhibitor, full curve], CCNS(=O)(=O)c1ccc(CCC(N)=O)cc1 100 µM [inhibitor, single point], Cc1ccc(/C=C/C(=O)NCc2ccc(S(N)(=O)=O)cc2)o1 8.91 µM [inhibitor, single point], CC(=O)c1ccc(OC(=O)CCNC(=O)c2ccccc2)cc1 50.1 µM [inhibitor, partial curve, poor fit], CNC(=O)/C(C#N)=C/c1ccc(-c2nc3ccccc3s2)o1 89.1 µM [inhibitor, partial curve], CN1C(=O)[C@H]2[C@@H](/C=C/c3ccccc3)N3C(=O)CN(Cc4ccc(-c5ccccc5)cc4)C(=O)[C@@]3(C)[C@H]2C1=O 3.16 µM [inhibitor, full curve, poor fit], Cc1cc(SCC(=O)N(CC(C)C)c2c(N)n(CC(C)C)c(=O)[nH]c2=O)nc2ccccc12 25.1 µM [inhibitor, full curve, poor fit], Oc1ccc(-c2n[nH]c(=S)n2-c2ccc3c(c2)OCCO3)c(O)c1 15.8 µM [inhibitor, full curve, poor fit], O=C(OCc1cc(=O)n2nc(-c3cccs3)sc2n1)c1ccc(Cl)cc1 89.1 µM [inhibitor, single point], CS(=O)(=O)N1N=C(c2ccco2)CC1c1ccco1 (centres undefined) 31.6 µM [inhibitor, single point], CC(=O)N1CCN(c2ccc(NCc3ccc(C(C)C)cc3)cc2)CC1 39.8 µM [inhibitor, partial curve, poor fit], Cc1nc(-c2nnc(SCC(=O)Nc3ccc(Cl)cc3)n2C)cs1 44.7 µM [inhibitor, partial curve, poor fit], CCOC(=O)C1CCCN(C2=C(NS(=O)(=O)c3ccc(Br)cc3)C(=O)c3ccccc3C2=O)C1 (centres undefined) 25.1 µM [inhibitor, single point], CC(=O)N(Cc1c(C)nn(-c2ccccc2)c1Cl)c1ccc(Cl)cc1 22.4 µM [inhibitor, partial curve, poor fit], C=CCNC(=O)/C(C#N)=C/c1ccc(C(=O)O)cc1 12.6 µM [inhibitor, full curve, poor fit], CCn1c(COc2cccc3cccnc23)nnc1SC(F)F 100 µM [inhibitor, partial curve, poor fit], CCOc1ccc(CCNS(=O)(=O)c2cn(C)cn2)cc1OCC 100 µM [inhibitor, partial curve, poor fit], O=C(CSc1nc2sc3c(c2c(=O)n1-c1ccccc1)CCCC3)N/N=C/c1ccccc1C(=O)O 25.1 µM [inhibitor, partial curve, poor fit], CCOC(=O)N1CCN(Cc2ccccn2)CC1 35.5 µM [inhibitor, partial curve, poor fit], O=C1CSC(=S)N1c1ccc(Cl)c(Cl)c1 10 µM [inhibitor, full curve, poor fit]

Potency, active:
O=C(C[n+]1csc2ccccc21)c1ccc(O)c(O)c1 14.1 µM, Cc1[nH][nH]c(=O)c1C(c1c(C)[nH][nH]c1=O)c1cn(Cc2ccc(F)cc2)c2ccccc12 2.24 µM

activity, negative = inhibition, inactive:
O=c1cc(-c2ccccc2Cl)oc2c([N+](=O)[O-])c(O)cc(O)c12 -19.4%, Cc1noc(C)c1C(=O)N1CCCC(N2CCN(c3cccc(C(F)(F)F)c3)CC2)C1 (centres undefined) 25.9%, CCOc1ccccc1NC(=O)c1nn(-c2ccc(C)cc2)c(=O)n(C)c1=O -12.2%, O=C1NC(=O)/C(=C\c2ccc(OCc3cnc(Cl)s3)cc2)S1 70.1%, CCOC(=O)N1CCN(C(=O)c2c[nH]c3ccc(S(=O)(=O)N(C)c4ccc(F)cc4)cc3c2=O)CC1 11.6%, COC(=O)c1cc2sc(C)cc2n1Cc1cccc(OC)c1 7.31%, COc1ccc(CNC(=O)CCCN2C(=O)CSc3c2c(C)nn3-c2ccccc2)cc1 14.8%, CC(C)(C)CC(C)(C)N=C1Nc2ccccc2N[C@]12C[C@H]1CCCC(=O)N3CC[C@@H](C2)[C@@H]13 3.94%, O=C(CSc1nnc(SCc2ccccc2Cl)s1)N/N=C/c1c[nH]c2ccccc12 7.28%, CCC1=C(c2ccc(C)cc2)S(=O)(=O)N=C1N1CCC(C(=O)Nc2ccccc2F)CC1 -17%

— PubChem BioAssay AID588590 (National Center for Advancing Translational Sciences (NCATS), 2011)
